Measurements taken from publication PMC10864350, “Phosphorylation-dependent deubiquitinase OTUD3 regulates YY1 stability and promotes colorectal cancer progression” (Cell Death & Disease, 2024).
These are yes or no findings as the source states them, for the method shown. In cells and extracts the contact can be indirect. These calls come from enrichment with a bait or labelling near it, and not all partners need be listed.

Amino acid sequences for entries named in this document (tags omitted).
UniProt P25490: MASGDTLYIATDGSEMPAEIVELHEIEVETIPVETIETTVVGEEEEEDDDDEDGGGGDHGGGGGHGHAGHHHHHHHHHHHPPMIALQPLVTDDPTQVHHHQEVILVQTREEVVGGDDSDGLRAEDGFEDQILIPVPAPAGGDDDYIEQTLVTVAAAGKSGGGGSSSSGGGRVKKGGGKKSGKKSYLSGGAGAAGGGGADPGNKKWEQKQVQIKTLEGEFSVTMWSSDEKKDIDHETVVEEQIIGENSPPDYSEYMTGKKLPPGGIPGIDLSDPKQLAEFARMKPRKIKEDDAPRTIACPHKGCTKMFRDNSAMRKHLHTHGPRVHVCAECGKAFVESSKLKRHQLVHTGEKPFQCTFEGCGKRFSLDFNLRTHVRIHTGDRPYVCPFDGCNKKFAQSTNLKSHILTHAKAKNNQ
UniProt Q5T2D3: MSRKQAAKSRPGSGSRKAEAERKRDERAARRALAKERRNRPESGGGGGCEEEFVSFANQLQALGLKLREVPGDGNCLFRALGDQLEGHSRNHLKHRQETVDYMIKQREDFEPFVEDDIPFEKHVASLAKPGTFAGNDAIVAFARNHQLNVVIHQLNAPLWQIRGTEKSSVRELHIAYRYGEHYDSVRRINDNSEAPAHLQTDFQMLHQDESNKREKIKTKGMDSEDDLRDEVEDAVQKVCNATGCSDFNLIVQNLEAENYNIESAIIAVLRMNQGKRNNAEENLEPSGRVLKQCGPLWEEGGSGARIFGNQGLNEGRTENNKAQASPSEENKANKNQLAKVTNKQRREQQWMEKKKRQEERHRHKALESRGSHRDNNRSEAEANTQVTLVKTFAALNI
UniProt P53350: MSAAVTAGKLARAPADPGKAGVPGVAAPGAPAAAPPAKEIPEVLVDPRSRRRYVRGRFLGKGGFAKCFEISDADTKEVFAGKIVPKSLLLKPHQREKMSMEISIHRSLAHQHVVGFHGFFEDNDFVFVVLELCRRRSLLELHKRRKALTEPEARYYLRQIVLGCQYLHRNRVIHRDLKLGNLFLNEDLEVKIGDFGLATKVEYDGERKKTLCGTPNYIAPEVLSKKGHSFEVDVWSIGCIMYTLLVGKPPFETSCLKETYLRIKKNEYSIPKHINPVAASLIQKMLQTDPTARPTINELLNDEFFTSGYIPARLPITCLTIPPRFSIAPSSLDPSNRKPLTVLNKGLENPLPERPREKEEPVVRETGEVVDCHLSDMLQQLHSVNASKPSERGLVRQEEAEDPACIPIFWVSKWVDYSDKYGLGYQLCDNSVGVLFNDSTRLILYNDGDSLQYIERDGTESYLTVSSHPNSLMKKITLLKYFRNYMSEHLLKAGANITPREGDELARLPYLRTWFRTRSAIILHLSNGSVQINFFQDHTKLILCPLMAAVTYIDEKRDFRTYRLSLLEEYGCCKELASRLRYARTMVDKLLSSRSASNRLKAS

Key:
[1] = molecular target: Flag-tagged YY1 (Yin Yang 1), full length, wild type (UniProt P25490); assay: affinity purification with mass spectrometry; tagged bait transfected into CRC cells (Flag-YY1 in SW480; HA-OTUD3 in DLD1), immunoprecipitation with anti-Flag or anti-HA magnetic beads, Coomassie staining, LC-MS/MS
[2] = molecular target: HA-tagged OTUD3, full length, wild type (human) (UniProt Q5T2D3); assay: as above

Substance | binding [1] | binding [2]
endogenous OTUD3 (from UniProt Q5T2D3 1-398) (enzyme) | binds | 
endogenous Polo-like kinase 1 (PLK1) (from UniProt P53350 1-603) (enzyme) |  | binds
